For two substances, binding results are on record in paper PMC11852716, “c-di-GMP phosphodiesterase ProE interacts with quorum sensing protein PqsE to promote pyocyanin production in Pseudomonas aeruginosa” (mSphere, 2025).

Amino acid sequences for entries named in this document (tags omitted). A change or cut given only in a name is not applied to a line headed by its entry.
UniProt Q9HTQ9: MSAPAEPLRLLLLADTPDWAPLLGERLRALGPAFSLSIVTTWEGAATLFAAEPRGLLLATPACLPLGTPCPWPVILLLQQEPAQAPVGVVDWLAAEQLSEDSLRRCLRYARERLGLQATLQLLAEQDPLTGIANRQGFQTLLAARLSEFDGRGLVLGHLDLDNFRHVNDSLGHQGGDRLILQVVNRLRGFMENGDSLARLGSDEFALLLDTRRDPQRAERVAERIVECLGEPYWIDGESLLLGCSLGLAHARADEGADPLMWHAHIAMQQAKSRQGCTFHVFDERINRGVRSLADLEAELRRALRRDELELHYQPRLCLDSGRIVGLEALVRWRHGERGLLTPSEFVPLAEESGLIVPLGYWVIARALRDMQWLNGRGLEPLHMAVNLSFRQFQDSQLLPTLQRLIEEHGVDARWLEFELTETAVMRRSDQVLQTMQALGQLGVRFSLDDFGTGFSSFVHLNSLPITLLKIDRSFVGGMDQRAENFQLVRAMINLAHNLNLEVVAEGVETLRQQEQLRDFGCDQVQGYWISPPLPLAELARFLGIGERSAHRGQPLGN
UniProt P20581: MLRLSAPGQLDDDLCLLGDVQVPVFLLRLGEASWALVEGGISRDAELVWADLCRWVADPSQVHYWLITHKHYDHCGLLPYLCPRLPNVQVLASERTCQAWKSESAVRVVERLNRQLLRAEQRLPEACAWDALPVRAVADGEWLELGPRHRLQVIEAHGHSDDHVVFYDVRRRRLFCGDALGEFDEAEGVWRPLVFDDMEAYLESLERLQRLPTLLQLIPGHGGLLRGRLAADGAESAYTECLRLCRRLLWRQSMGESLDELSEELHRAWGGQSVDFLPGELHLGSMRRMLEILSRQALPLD
UniProt P54292: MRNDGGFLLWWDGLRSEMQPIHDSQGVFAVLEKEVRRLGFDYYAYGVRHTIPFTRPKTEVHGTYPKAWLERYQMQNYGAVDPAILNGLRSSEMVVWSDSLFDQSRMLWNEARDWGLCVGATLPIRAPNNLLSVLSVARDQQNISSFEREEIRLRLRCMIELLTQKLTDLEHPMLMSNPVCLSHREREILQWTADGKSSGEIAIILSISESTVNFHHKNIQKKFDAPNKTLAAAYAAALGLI

In this assay the target is ProE, bacterial two-hybrid fusion (Pseudomonas aeruginosa) (UniProt Q9HTQ9). In words: two-hybrid; BacterioMatch II bacterial two-hybrid in E. coli XL1-Blue MRF' Kan; growth on M9+ His-deficient plate with 2.5 mM 3-AT, 37°C overnight.

No constants are given. Whether binding was seen depends on the method and setting. A result given as binding can be weak or reduced; the word gives no strength.

Consider “PqsE, bacterial two-hybrid fusion (from UniProt P20581 1-301)”, for which the binding entry is on record as “binds”. The entry for “RhlR, bacterial two-hybrid fusion (from UniProt P54292 1-241)” is “no binding”.
